# Reference: the supplement of paper PMC10849652
# By UniProt entry, the sequences of proteins in these tests, tags left out. Where a name states a change or a piece, a line headed by the entry shows the natural chain unless it says otherwise.
# UniProt P52888, whole entry, looked up: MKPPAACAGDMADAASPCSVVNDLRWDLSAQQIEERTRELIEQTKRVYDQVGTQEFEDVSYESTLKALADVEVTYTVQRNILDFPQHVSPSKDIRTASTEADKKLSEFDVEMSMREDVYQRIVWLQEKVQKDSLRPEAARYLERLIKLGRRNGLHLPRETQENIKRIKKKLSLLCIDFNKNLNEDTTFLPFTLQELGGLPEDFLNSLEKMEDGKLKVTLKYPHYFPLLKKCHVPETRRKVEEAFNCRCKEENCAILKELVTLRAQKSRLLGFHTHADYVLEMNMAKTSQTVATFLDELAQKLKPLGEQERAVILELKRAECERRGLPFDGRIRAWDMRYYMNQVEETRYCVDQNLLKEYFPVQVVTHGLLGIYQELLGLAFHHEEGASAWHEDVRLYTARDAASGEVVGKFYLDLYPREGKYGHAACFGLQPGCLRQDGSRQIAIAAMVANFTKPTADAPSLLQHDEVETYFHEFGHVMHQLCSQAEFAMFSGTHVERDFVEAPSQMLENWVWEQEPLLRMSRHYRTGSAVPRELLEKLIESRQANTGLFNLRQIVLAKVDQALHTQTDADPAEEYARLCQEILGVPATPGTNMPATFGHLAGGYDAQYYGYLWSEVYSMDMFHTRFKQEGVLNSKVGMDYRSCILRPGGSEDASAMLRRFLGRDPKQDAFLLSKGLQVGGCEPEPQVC
# UniProt Q9Y5J7: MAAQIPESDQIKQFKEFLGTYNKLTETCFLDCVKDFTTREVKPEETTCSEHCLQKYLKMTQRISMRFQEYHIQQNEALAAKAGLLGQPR
# UniProt Q3LXA3: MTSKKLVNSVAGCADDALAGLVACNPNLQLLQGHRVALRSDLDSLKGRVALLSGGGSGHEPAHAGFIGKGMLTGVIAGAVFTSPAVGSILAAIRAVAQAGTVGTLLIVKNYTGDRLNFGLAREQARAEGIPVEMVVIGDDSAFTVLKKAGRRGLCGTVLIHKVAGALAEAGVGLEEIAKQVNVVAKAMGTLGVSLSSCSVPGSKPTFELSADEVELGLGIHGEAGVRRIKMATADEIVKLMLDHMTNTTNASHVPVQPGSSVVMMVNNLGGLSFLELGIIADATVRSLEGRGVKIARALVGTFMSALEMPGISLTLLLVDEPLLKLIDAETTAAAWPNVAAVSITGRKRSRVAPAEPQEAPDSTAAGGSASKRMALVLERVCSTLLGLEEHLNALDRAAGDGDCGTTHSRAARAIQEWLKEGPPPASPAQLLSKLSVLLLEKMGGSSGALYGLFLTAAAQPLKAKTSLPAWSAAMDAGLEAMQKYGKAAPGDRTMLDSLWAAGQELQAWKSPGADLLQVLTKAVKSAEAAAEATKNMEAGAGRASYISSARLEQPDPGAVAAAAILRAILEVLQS
# UniProt Q9BTF0: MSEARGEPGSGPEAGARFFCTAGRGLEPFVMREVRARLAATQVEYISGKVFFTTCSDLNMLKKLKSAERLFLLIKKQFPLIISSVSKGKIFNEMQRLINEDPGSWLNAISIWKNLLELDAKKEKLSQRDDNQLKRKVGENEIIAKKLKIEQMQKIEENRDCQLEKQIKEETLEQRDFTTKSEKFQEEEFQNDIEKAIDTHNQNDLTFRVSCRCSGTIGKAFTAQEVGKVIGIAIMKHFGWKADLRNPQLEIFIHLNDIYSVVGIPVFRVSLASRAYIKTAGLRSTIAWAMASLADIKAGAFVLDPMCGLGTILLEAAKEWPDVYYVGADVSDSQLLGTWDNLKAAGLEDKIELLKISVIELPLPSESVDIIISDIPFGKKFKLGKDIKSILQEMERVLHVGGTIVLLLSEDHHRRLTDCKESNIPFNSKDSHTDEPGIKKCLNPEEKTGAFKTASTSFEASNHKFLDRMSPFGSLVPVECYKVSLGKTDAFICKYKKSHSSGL
# UniProt Q9NWX6: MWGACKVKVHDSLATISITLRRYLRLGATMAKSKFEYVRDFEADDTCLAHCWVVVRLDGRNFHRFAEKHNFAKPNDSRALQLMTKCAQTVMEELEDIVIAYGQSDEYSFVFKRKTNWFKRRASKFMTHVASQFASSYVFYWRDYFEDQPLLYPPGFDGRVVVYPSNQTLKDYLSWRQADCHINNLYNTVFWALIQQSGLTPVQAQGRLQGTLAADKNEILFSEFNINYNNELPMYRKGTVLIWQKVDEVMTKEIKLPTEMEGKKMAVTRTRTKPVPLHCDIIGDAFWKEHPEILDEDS
# UniProt Q15814: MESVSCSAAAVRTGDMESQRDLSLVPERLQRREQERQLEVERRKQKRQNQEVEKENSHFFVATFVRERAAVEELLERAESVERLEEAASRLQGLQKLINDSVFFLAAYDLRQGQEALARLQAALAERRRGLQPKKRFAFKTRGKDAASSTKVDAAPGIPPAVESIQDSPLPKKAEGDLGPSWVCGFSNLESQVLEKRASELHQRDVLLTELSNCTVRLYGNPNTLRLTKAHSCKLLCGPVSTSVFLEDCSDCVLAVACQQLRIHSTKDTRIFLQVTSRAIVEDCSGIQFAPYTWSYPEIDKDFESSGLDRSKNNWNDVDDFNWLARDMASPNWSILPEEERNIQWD
# UniProt O60343: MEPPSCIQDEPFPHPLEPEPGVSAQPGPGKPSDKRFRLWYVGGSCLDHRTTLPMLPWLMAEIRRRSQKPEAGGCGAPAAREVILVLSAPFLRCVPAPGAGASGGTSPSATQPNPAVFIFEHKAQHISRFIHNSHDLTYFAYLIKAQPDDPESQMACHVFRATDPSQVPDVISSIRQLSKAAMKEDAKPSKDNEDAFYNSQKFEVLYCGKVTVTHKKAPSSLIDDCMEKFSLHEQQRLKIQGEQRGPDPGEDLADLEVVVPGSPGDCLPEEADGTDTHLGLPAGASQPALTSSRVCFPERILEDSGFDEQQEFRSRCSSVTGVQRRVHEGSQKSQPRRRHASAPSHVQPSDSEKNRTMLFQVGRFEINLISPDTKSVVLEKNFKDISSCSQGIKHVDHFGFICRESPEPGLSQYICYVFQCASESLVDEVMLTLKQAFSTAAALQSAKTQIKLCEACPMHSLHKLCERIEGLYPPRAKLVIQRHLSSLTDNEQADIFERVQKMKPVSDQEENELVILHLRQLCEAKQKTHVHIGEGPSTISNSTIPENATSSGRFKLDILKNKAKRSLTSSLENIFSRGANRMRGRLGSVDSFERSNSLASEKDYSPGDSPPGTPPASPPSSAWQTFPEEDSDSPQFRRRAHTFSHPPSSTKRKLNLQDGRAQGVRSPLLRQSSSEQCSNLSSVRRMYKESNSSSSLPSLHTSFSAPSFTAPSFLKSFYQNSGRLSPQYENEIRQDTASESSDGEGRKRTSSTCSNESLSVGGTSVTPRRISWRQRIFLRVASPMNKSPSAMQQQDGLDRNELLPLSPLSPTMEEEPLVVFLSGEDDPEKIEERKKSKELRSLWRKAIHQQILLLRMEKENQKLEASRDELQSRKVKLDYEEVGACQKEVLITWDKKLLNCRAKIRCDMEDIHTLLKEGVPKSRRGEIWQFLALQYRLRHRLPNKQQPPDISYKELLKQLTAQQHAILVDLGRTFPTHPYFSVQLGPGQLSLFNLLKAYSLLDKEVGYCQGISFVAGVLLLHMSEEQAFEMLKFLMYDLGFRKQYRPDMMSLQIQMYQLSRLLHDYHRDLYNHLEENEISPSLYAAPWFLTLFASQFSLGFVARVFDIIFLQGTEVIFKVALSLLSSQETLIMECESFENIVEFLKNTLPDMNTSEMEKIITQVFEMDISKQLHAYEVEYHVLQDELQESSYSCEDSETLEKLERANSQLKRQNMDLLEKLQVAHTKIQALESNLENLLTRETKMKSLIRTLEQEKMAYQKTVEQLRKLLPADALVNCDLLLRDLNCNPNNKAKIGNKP
# UniProt Q04726: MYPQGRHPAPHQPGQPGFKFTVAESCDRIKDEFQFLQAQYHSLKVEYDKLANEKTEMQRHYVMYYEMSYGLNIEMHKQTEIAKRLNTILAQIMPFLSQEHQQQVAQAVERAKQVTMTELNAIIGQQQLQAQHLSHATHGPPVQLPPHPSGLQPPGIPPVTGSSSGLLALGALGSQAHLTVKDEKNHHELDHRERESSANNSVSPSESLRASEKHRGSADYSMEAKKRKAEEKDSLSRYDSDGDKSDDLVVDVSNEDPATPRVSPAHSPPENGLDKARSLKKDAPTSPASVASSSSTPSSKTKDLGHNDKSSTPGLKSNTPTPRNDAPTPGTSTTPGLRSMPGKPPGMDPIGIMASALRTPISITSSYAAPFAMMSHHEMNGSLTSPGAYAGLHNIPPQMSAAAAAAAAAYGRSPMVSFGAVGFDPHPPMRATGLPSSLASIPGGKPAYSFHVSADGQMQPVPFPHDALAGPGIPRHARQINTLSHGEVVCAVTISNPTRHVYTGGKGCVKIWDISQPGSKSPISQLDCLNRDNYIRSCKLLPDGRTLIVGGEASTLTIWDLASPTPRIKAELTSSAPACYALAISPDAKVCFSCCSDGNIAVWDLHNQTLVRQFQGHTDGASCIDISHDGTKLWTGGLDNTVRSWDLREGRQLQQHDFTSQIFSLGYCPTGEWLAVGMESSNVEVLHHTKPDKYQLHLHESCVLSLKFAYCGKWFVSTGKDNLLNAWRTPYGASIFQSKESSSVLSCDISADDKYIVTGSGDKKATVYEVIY
# UniProt P35443: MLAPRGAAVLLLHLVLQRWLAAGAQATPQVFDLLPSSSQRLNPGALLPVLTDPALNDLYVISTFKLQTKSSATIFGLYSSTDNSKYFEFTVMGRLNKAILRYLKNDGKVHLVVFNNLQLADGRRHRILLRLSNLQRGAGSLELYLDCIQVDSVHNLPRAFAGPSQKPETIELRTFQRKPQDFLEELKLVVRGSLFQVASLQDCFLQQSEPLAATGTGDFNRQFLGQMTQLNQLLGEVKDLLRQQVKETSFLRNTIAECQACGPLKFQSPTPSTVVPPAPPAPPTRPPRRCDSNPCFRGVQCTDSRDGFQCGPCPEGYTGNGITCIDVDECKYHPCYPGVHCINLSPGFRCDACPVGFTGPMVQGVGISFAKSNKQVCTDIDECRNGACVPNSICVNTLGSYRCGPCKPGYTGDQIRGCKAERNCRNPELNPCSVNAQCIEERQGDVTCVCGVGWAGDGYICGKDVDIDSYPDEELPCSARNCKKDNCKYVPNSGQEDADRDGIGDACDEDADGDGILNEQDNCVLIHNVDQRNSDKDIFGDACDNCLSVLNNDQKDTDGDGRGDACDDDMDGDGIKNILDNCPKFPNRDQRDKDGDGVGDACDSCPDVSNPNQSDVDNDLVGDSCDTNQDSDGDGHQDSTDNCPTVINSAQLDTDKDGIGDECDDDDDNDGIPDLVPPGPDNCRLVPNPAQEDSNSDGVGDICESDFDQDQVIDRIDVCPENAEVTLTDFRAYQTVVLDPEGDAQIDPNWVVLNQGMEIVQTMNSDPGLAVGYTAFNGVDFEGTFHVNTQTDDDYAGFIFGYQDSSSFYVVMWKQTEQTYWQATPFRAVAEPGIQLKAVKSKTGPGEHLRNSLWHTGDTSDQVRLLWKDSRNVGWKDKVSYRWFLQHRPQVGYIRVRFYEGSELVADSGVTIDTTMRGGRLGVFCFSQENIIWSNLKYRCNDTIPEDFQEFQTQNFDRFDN
# UniProt Q86XR7, whole entry, looked up: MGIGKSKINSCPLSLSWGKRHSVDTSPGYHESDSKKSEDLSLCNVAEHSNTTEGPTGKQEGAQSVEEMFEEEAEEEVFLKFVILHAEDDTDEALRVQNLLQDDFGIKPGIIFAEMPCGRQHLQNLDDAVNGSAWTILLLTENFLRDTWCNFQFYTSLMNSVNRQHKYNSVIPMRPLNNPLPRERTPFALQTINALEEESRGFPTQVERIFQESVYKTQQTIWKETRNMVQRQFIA
# UniProt O60907: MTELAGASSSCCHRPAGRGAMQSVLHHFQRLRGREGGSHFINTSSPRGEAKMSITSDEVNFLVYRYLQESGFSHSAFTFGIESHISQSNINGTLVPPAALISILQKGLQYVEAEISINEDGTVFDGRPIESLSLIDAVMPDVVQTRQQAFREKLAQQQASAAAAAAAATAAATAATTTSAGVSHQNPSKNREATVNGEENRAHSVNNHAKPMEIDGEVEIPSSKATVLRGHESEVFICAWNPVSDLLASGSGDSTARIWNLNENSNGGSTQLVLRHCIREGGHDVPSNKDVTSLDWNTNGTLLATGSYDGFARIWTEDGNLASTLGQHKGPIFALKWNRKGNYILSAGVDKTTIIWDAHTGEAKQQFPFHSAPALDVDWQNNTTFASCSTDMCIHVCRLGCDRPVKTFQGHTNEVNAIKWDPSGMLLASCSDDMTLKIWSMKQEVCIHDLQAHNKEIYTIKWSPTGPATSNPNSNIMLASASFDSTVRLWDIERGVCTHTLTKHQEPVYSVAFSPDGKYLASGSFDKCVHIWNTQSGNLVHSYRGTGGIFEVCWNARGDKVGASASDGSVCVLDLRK
# UniProt Q96BS2: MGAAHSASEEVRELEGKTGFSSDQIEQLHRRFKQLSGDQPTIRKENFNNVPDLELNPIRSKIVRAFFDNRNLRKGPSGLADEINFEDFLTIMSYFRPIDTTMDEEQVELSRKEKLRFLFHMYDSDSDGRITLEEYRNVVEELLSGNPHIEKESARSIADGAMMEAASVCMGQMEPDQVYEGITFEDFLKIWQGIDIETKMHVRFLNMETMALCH
# The other results are listed elsewhere or left out.
# Compound: C[C@H](Nc1ncnc2nc[nH]c12)c1cc2cccc(Cl)c2c(=O)n1-c1ccccc1 [duvelisib]
# Assay: log2 fold change, soluble protein after heating vs DMSO (PISA); higher = thermal stabilisation; K562 cells, 10 uM, 30 min; active = over 0.2 and 3.5 SD of the protein, either way, in both replicates (recomputed)
# Outline: (§1)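 Aliquots of K562 cells (2×10^6 cells/mL) treated with 10 μM compound for 30 min were heated for 3 min over 48°C-58°C. After pooling and extraction in PBS with 0.5% NP-40 at 4°C, soluble protein from a 21,000xg, 90 min spin was quantified by TMTpro 16plex LC-MS/MS with channel sums equalised. Thermal stability is expressed against control samples, from duplicates, as a log2 fold change.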
row,Target,log2 fold change
1,THOP1 (UniProt P52888),inactive: 0.039
2,TIMM9 (UniProt Q9Y5J7),inactive: 0.108
3,TCF3 (UniProt P15923),inactive: -0.021
4,TBL1XR1 (UniProt Q9BZK7),inactive: -0.011
5,TKFC (UniProt Q3LXA3),inactive: 0.032
6,TIMM8A (UniProt O60220),inactive: 0.28
7,THUMPD2 (UniProt Q9BTF0),inactive: 0.093
8,TIMM17A (UniProt Q99595),inactive: 0.017
9,THG1L (UniProt Q9NWX6),inactive: 0.015
10,TBCC (UniProt Q15814),inactive: 0.06
11,TES (UniProt Q9UGI8),inactive: 0.013
12,TBCA (UniProt O75347),inactive: 0.003
13,TBC1D4 (UniProt O60343),inactive: -0.05
14,TLE3 isoform 4 (UniProt Q04726),inactive: -0.033
15,TGM2 (UniProt P21980),inactive: 0.022
16,TGFB1 (UniProt P01137),inactive: 0
17,TDP2 isoform 2 (UniProt O95551),inactive: 0.021
18,TIMM22 (UniProt Q9Y584),inactive: -0.098
19,THBS4 (UniProt P35443),inactive: -0.096
20,TERF2 (UniProt Q15554),inactive: -0.333
21,TICAM2 isoform 2 (UniProt Q86XR7),inactive: -0.028
22,TBL1X (UniProt O60907),inactive: 0.042
23,TF (UniProt P02787),inactive: -0.362
24,THOC5 (UniProt Q13769),inactive: -0.036
25,TESC (UniProt Q96BS2),inactive: 0.03

# Compound: Cc1cc(Nc2cc(CN3CCOCC3)c3nc(C)c(Cc4ccc(Cl)cc4F)n3n2)n[nH]1 [gandotinib]
# Assay: as above
# Outline: as §1
row,Target,log2 fold change
1,TEX264 (UniProt Q9Y6I9),inactive: -0.059
2,THOP1 (UniProt P52888),inactive: 0.012
3,TGFBRAP1 (UniProt Q8WUH2),inactive: -0.142
4,TIMM9 (UniProt Q9Y5J7),inactive: 0.045
5,TCF3 (UniProt P15923),inactive: -0.127
6,TIMM10 (UniProt P62072),inactive: 0.052
7,TFR2 (UniProt Q9UP52),inactive: 0.03
8,TBL1XR1 (UniProt Q9BZK7),inactive: -0.018
9,TBC1D9B (UniProt Q66K14),inactive: 0.024
10,TKFC (UniProt Q3LXA3),inactive: -0.05
11,TGFBR1 isoform 2 (UniProt P36897),inactive: 0.101
12,TCOF1 isoform 4 (UniProt Q13428),inactive: 0.042
13,TIMM8A (UniProt O60220),inactive: 0.185
14,THUMPD2 (UniProt Q9BTF0),inactive: 0.06
15,TFB2M (UniProt Q9H5Q4),inactive: -0.19
16,TIMM17A (UniProt Q99595),inactive: 0.075
17,TFRC (UniProt P02786),inactive: -0.011
18,THG1L (UniProt Q9NWX6),inactive: -0.067
19,TBCC (UniProt Q15814),inactive: -0.071
20,TES (UniProt Q9UGI8),inactive: 0.03

row,Target,log2 fold change
1,TELO2 (UniProt Q9Y4R8),inactive: -0.198
2,TBCA (UniProt O75347),inactive: 0.013
3,TBC1D4 (UniProt O60343),inactive: 0.035
4,TIAL1 isoform 2 (UniProt Q01085),inactive: -0.048
5,TLE3 isoform 4 (UniProt Q04726),inactive: -0.059
6,TGM2 (UniProt P21980),inactive: -0.026
7,TGFB1 (UniProt P01137),inactive: 0.016
8,TDP2 isoform 2 (UniProt O95551),inactive: -0.03
9,TECR (UniProt Q9NZ01),active: -0.344
10,TIMM22 (UniProt Q9Y584),inactive: -0.015
11,THBS4 (UniProt P35443),inactive: -0.262
12,TERF2 (UniProt Q15554),inactive: 0.015
13,TICAM2 isoform 2 (UniProt Q86XR7),inactive: -0.132
14,TIMM13 (UniProt Q9Y5L4),inactive: -0.002
15,TBL1X (UniProt O60907),inactive: 0.003
16,TF (UniProt P02787),inactive: 0.01
17,THOC5 (UniProt Q13769),inactive: 0.037
18,TBC1D15 isoform 3 (UniProt Q8TC07),inactive: -0.191
19,TESC (UniProt Q96BS2),inactive: -0.076
20,TCERG1 (UniProt O14776),inactive: -0.057

# Compound: Cc1cc(Nc2cc(N3CCN(C)CC3)nc(Sc3ccc(NC(=O)C4CC4)cc3)n2)n[nH]1 [tozasertib]
# Assay: as above
# Outline: as §1
row,Target,log2 fold change
1,THOP1 (UniProt P52888),inactive: -0.036
2,TIMM9 (UniProt Q9Y5J7),inactive: 0.074
3,TCF3 (UniProt P15923),inactive: 0.009
4,TBL1XR1 (UniProt Q9BZK7),inactive: 0.011
5,TKFC (UniProt Q3LXA3),inactive: -0.015
6,TIMM8A (UniProt O60220),inactive: 0.046
7,THUMPD2 (UniProt Q9BTF0),inactive: -0.03
8,TIMM17A (UniProt Q99595),inactive: -0.01
9,THG1L (UniProt Q9NWX6),inactive: 0.001
10,TBCC (UniProt Q15814),inactive: 0.037
11,TES (UniProt Q9UGI8),inactive: 0.015
12,TBCA (UniProt O75347),inactive: -0.047
13,TBC1D4 (UniProt O60343),inactive: 0.039
14,TLE3 isoform 4 (UniProt Q04726),inactive: -0.011
15,TGM2 (UniProt P21980),inactive: 0.008
16,TGFB1 (UniProt P01137),inactive: 0.003
17,TDP2 isoform 2 (UniProt O95551),inactive: -0.097
18,TIMM22 (UniProt Q9Y584),inactive: 0.028
19,THBS4 (UniProt P35443),inactive: -0.079
20,TERF2 (UniProt Q15554),inactive: 0.016
21,TICAM2 isoform 2 (UniProt Q86XR7),inactive: 0.034
22,TBL1X (UniProt O60907),inactive: 0.018
23,TF (UniProt P02787),inactive: -0.03
24,THOC5 (UniProt Q13769),inactive: 0.003
25,TESC (UniProt Q96BS2),inactive: 0.133
